The values are deposited in ChEMBL (CHEMBL3988442, “University of Dundee, Small-Polar-MMV Screening Library” (2021)).

The chains behind the UniProt entries cited, without tags or fusion partners.
UniProt P9WPC5, whole entry: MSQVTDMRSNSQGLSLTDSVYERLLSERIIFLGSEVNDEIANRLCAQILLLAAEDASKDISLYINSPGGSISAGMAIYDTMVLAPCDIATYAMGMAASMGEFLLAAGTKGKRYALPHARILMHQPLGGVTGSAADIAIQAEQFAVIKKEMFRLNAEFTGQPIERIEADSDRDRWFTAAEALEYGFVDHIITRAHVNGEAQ
UniProt P9WPC3, whole entry partner: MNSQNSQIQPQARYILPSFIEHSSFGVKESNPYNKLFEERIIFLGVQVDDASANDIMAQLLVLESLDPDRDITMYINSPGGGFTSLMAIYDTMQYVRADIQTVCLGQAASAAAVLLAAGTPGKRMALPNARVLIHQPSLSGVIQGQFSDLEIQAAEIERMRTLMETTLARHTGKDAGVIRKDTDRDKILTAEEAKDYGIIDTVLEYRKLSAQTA
UniProt P9WNZ1, whole entry: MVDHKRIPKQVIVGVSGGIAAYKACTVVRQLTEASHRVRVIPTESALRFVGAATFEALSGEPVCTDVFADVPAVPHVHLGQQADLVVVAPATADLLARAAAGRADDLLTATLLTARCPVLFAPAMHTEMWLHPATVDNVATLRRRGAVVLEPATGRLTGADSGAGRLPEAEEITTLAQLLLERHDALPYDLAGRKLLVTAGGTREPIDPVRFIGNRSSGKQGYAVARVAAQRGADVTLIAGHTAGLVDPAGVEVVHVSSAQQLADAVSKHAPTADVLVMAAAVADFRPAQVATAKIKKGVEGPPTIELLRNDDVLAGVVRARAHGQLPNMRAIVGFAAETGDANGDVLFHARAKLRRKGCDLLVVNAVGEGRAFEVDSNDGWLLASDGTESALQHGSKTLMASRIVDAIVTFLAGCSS

Toxoplasma: 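Assay of Toxoplasma gondii numbers, read through their beta-galactosidase reporter with a colour substrate. Tested at 10 µM. Higher reads as fewer parasites (inferred from which compounds were picked for retests). Size under these conditions: about 67,000 compounds, about 260 of them at 50% or above in at least one test.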
ClpP1P2: 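ClpP1P2, Mycobacterium tuberculosis (UniProt P9WPC5 and UniProt P9WPC3). Protease assay of ClpP1P2, read by the AMC dye that it sets free. Tested at 50 µM. Direction is inferred from only a few compounds that gave an IC50; most scored high, so higher reads as stronger inhibition. Most other retested compounds had strongly negative values. About 69,000 compounds were tested under these conditions; 0.015% (about 10) showed 50% or more at least once.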
T. brucei: 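Whole-parasite assay of Trypanosoma brucei over 72 hours; the read-out is not stated. Compounds at 30 µM. Direction is inferred from retests: higher values go with stronger inhibition. Values scatter widely below zero; nearly all retest evidence comes from the higher of the two concentrations used. Of about 64,000 compounds tested this way, about 940 (1.5%) reached 50% or more in at least one test.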
CoaBC: 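Enzyme assay of CoaBC with a phosphate dye (Biomol Green) read at 650 nm. Target: Coenzyme A biosynthesis protein CoaBC, Mycobacterium tuberculosis (UniProt P9WNZ1). Concentration: 30 µM. Higher reads as stronger inhibition, judged from the few compounds that gave an IC50. Most strong results did not repeat in a second test. Size under these conditions: about 67,000 compounds, about 40 of them at 50% or above in at least one test.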

Values are the deposited “Percent Effect”, in %.
How 0% and 100% were set is not recorded. Most values in the screen are low, and negative values occur.
This is an unselected part of the compounds tested.

{"smiles": "CC1(C)CN=C(N2CCN(CC3CCCO3)CC2)S1", "stereo": "stereo not shown", "Toxoplasma": -2.582, "ClpP1P2": -2.676, "T. brucei": -22.55, "CoaBC": 4.463}
{"smiles": "N#Cc1ccc(S(=O)(=O)N2CSCC2C(=O)NCC(F)(F)F)cc1", "stereo": "stereo not shown", "Toxoplasma": -10.92, "ClpP1P2": 5.277, "T. brucei": -11.36, "CoaBC": 6.743}
{"smiles": "COc1cc(C2Nc3cc(Cl)ccc3C3=NCCN32)ccc1O", "stereo": "stereo not shown", "Toxoplasma": -26.32, "ClpP1P2": -4.616, "T. brucei": 69.32, "CoaBC": -2.85}
{"smiles": "CC(C(=O)N1CCCC1)n1nc(-c2cccs2)cc(N)c1=O", "stereo": "stereo not shown", "Toxoplasma": 7.482, "ClpP1P2": -24.12, "T. brucei": 15.26, "CoaBC": -9.709}
{"smiles": "CC(=O)N1CCCC2(CN(Cc3ccc(C)s3)CCO2)C1.O=C(O)C(F)(F)F", "stereo": "stereo not shown", "Toxoplasma": 3.202, "T. brucei": -8.793}
{"smiles": "Cc1cc(C)cc(CNC(C)c2c(C)nn(C)c2C)c1", "stereo": "stereo not shown", "Toxoplasma": 3.995, "ClpP1P2": -1.72, "T. brucei": -16.01, "CoaBC": 1.844}
{"smiles": "O=C(NCCSc1cnn[nH]1)c1c[nH]nc1C1CCCCC1", "Toxoplasma": 8.87, "ClpP1P2": -4.637, "T. brucei": -40.52, "CoaBC": -5.122}
{"smiles": "CCCN1CCN(C(=O)c2cnn(-c3ccccc3F)c2)CC1", "Toxoplasma": 15.81, "ClpP1P2": -2.284, "T. brucei": 55.35, "CoaBC": 2.066}
{"smiles": "Cc1cc(C)nc(Nc2cc(C)nc(C3CCN(C(=O)CO)C3)n2)n1", "stereo": "stereo not shown", "Toxoplasma": 11.22, "ClpP1P2": -6.405, "T. brucei": 10.12, "CoaBC": 3.828}
{"smiles": "O=C(O)C(F)(F)F.[H][C@]12CCN(C(=O)c3ccno3)[C@@]1([H])CC[C@@H](COCCN1CCCC1)O2", "Toxoplasma": -5.588, "T. brucei": 39.45}
{"smiles": "Cc1cc(C(=O)N(C)C)c2c(Br)cccc2n1", "Toxoplasma": 0.04502, "ClpP1P2": -4.721, "T. brucei": -15.96, "CoaBC": -2.926}
{"smiles": "Cn1c(Cn2cccn2)nnc1C1CCN(Cc2ccccc2Cl)CC1", "Toxoplasma": -22.15, "ClpP1P2": -20.26, "T. brucei": -17.46, "CoaBC": 3.316}
{"smiles": "Cc1nn(C)c(C)c1CCC(=O)NCC1(C(N)=O)CCOCC1", "Toxoplasma": -5.433, "ClpP1P2": -6.802, "T. brucei": -11.62, "CoaBC": 10.03}
{"smiles": "[H][C@@]12CS(=O)(=O)C[C@]1([H])N(C(=O)N(C)C)CCN2Cc1ccccc1", "Toxoplasma": -2.77, "T. brucei": 3.97}
{"smiles": "O=C1C(Nc2nccn3cnnc23)CCN1c1cccc(Cl)c1", "stereo": "stereo not shown", "Toxoplasma": 13.19, "ClpP1P2": -9.908, "T. brucei": -20.48, "CoaBC": 1.654}
{"smiles": "CCn1c(C(=O)N2CCN(CC[S+](C)[O-])CC2)cc2ccccc21", "stereo": "stereo not shown", "Toxoplasma": 7.016, "ClpP1P2": 7.933, "CoaBC": -3.345}
{"smiles": "CC(=O)N1CCc2c(nc(N(C)C)nc2NCc2cccs2)C1", "Toxoplasma": -18.94, "ClpP1P2": -10.61, "CoaBC": 4.4}
{"smiles": "Cc1ccc(CN2CCc3c(nnn3C)C2COCc2ccccc2)s1", "stereo": "stereo not shown", "ClpP1P2": -14.63, "CoaBC": 2.596}
{"smiles": "Cc1c(CNC2CCN(c3ccccc3OC(F)F)C2)cnn1C", "stereo": "stereo not shown", "Toxoplasma": 9.613, "ClpP1P2": -13.51, "T. brucei": -0.6431, "CoaBC": -1.434}
{"smiles": "COCCN1CCC2(CC1)CN(C(=O)Cc1cccnc1)CCO2", "ClpP1P2": 7.689, "CoaBC": 0.6435}
{"smiles": "CCCNC(=O)CNc1ccccc1OCCC(=O)OC", "Toxoplasma": -6.51, "ClpP1P2": -1.908, "T. brucei": 4.044, "CoaBC": -3.774}
{"smiles": "COc1ccc(CC(=O)N2CCc3nc(C(=O)N(C)C)sc3CC2)cc1", "Toxoplasma": -0.5933, "ClpP1P2": -7.979, "T. brucei": -40.1}
{"smiles": "CN1CCCN(c2ncnc(N3CCOCC3)c2N)CC1", "Toxoplasma": 2.554, "ClpP1P2": -4.032, "T. brucei": -8.499, "CoaBC": 3.641}
{"smiles": "COCCS(=O)(=O)Cc1csc(NC(C)=O)n1", "Toxoplasma": 1.752, "ClpP1P2": -5.999, "T. brucei": -3.316, "CoaBC": 4.964}
{"smiles": "Cc1nccn1CCC1CCCCN1C(=O)c1ccc2nonc2c1", "stereo": "stereo not shown", "Toxoplasma": 7.777, "ClpP1P2": -5.903, "T. brucei": -8.089, "CoaBC": -4.884}
{"smiles": "O=C(c1cnoc1)N1CCC[C@]2(C[C@@H](Oc3ccccn3)CO2)C1", "ClpP1P2": -12.13, "CoaBC": 2.343}
{"smiles": "CC(C)(C)c1nc(CN2CCC(c3ccnn3CCO)CC2)no1", "Toxoplasma": -1.216, "ClpP1P2": -17.27, "T. brucei": -25.54, "CoaBC": 0.6818}
{"smiles": "COc1cc(Cl)cc(C(=O)N2CCC3(CCCNC3)C2)c1", "stereo": "stereo not shown", "ClpP1P2": -5.907, "T. brucei": -12.63, "CoaBC": -3.567}
{"smiles": "CC(Cc1cccc(F)c1)C(=O)NS(=O)(=O)c1ccc2c(c1)OCCO2", "stereo": "stereo not shown", "Toxoplasma": -6.09, "ClpP1P2": 6.22, "T. brucei": -44.61, "CoaBC": -0.3681}

Repeated from the top, 2 entries:

| SMILES | Toxoplasma | ClpP1P2 | T. brucei | CoaBC |
|---|---|---|---|---|
| `CC1(C)CN=C(N2CCN(CC3CCCO3)CC2)S1` (stereo not shown) | -2.582 | -2.676 | -22.55 | 4.463 |
| `N#Cc1ccc(S(=O)(=O)N2CSCC2C(=O)NCC(F)(F)F)cc1` (stereo not shown) | -10.92 | 5.277 | -11.36 | 6.743 |